Laboratory results as given in publication doi:10.1101/728410.
These are yes or no findings as the source states them, for the method shown. Binding seen in cells or lysates may run through a third protein. Some binding calls cover weakened binding; strength is not graded here.

Amino acid sequences for entries named in this document (tags omitted). A change or cut given only in a name is not applied to a line headed by its entry. Chains listed by the source or under a name are the forms on record and can include a tag or linker.
shank2 R240K mutant (reconstituted expression) (Q9QX74, form named): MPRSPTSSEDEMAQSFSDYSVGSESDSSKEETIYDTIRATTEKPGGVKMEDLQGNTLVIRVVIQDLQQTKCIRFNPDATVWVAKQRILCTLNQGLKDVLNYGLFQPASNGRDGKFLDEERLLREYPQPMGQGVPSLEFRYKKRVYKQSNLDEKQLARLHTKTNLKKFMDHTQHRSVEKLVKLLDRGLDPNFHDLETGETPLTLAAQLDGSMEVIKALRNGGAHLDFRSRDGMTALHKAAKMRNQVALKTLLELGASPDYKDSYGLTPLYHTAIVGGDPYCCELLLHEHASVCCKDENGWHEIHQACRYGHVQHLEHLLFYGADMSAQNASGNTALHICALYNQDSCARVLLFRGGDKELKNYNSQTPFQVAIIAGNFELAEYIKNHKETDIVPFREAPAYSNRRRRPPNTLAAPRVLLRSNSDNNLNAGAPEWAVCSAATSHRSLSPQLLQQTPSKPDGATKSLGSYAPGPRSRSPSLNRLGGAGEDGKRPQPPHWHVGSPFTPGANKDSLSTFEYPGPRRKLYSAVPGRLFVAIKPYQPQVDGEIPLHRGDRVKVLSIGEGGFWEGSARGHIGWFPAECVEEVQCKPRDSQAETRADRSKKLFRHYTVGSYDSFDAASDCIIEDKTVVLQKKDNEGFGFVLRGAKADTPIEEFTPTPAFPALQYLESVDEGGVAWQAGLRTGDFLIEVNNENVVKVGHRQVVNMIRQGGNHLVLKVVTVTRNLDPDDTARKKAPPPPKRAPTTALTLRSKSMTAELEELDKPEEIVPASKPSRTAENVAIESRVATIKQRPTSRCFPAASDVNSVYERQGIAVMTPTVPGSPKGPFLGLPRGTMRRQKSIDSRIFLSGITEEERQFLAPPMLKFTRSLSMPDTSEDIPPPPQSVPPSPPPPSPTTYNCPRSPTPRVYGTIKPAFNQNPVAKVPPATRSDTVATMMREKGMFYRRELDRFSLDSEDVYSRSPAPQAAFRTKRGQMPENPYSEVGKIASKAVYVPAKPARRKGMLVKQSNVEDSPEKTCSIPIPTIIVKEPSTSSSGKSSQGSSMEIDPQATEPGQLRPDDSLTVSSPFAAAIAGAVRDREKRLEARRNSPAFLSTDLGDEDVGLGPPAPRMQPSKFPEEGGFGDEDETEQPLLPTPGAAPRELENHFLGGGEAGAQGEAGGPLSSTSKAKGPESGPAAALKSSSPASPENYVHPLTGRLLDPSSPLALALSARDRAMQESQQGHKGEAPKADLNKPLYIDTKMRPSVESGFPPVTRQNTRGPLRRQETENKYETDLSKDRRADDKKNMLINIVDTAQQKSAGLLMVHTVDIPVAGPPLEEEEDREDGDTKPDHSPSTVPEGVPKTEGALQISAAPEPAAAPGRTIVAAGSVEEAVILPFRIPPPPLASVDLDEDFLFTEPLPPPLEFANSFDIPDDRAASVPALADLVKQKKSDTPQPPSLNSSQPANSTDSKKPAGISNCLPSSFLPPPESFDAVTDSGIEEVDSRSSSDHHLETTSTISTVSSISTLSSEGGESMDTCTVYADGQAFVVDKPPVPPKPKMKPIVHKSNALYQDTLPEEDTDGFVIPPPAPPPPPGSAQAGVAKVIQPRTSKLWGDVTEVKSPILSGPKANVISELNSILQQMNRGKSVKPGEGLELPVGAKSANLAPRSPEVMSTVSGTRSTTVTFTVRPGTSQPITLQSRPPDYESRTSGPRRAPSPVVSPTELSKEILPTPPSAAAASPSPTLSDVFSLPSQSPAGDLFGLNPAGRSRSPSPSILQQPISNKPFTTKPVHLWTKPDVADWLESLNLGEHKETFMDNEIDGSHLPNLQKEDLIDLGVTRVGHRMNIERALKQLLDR
shank2 WT (reconstituted expression) (Q9QX74, form named): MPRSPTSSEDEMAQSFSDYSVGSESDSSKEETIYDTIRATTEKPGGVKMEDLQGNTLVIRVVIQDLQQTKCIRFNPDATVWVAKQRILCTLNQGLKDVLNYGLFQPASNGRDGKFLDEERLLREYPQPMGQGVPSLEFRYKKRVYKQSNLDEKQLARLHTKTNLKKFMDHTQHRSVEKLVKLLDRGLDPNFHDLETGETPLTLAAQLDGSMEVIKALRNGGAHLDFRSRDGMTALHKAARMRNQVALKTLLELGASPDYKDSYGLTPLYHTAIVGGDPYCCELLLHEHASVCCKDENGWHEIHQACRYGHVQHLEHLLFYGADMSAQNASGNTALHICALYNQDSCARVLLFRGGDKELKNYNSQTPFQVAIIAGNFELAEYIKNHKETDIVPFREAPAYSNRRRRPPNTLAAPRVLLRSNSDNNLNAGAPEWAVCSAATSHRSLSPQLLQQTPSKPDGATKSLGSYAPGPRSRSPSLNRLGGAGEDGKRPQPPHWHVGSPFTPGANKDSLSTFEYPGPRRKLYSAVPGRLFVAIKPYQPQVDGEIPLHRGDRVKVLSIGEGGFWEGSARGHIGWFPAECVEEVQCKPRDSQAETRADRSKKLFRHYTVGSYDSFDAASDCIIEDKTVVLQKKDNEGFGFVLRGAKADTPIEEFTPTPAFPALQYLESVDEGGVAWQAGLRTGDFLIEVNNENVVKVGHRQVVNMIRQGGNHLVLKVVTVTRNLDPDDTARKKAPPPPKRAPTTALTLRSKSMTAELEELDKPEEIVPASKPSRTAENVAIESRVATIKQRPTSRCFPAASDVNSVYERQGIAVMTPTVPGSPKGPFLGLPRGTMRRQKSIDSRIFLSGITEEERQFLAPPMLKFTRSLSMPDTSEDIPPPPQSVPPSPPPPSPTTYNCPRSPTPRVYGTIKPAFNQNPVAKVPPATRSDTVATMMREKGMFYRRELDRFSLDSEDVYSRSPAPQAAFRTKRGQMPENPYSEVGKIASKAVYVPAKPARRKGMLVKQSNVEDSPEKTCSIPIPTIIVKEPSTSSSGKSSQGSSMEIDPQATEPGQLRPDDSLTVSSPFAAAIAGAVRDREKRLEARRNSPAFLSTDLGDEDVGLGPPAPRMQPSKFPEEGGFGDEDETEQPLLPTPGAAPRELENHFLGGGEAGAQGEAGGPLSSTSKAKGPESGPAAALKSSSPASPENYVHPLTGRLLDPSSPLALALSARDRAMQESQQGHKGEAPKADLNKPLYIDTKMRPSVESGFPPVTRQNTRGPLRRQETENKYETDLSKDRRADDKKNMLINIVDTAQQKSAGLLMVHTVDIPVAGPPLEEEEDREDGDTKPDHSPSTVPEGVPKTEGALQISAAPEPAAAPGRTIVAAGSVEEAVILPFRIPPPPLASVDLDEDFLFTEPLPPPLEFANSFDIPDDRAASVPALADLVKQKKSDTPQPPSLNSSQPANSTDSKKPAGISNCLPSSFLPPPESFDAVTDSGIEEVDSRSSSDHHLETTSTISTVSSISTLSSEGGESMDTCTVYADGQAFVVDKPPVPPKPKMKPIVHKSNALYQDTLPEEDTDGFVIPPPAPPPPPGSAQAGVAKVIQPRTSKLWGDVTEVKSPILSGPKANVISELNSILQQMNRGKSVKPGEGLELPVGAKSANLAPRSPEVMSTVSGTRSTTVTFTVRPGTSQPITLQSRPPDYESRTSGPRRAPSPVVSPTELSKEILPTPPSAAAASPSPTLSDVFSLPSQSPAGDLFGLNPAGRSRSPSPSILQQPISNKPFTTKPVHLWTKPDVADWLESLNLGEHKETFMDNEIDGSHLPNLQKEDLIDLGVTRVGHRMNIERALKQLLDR

Legend:
[1] = molecular target: shank2 R240K mutant (reconstituted expression) (UniProt Q9QX74); experiment: co-IP
[2] = molecular target: shank2 WT (reconstituted expression) (UniProt Q9QX74); experiment: co-IP

binding [1]: binds
binding [2]: binds
B1: RIN1 (endogenous) (protein, UniProt Q13671 1-783)
chain: MESPGESGAGSPGAPSPSSFTTGHLAREKPAQDPLYDVPNASGGQAGGPQRPGRVVSLRERLLLTRPVWLQLQANAAAALHMLRTEPPGTFLVRKSNTRQCQALCMRLPEASGPSFVSSHYILESPGGVSLEGSELMFPDLVQLICAYCHTRDILLLPLQLPRAIHHAATHKELEAISHLGIEFWSSSLNIKAQRGPAGGPVLPQLKARSPQELDQGTGAALCFFNPLFPGDLGPTKREKFKRSFKVRVSTETSSPLSPPAVPPPPVPVLPGAVPSQTERLPPCQLLRRESSVGYRVPAGSGPSLPPMPSLQEVDCGSPSSSEEEGVPGSRGSPATSPHLGRRRPLLRSMSAAFCSLLAPERQVGRAAAALMQDRHTAAGQLVQDLLTQVRAGPEPQELQGIRQALSRARAMLSAELGPEKLLSPKRLEHVLEKSLHCSVLKPLRPILAARLRRRLAADGSLGRLAEGLRLARAQGPGAFGSHLSLPSPVELEQVRQKLLQLLRTYSPSAQVKRLLQACKLLYMALRTQEGEGAGADEFLPLLSLVLAHCDLPELLLEAEYMSELLEPSLLTGEGGYYLTSLSASLALLSGLGQAHTLPLSPVQELRRSLSLWEQRRLPATHCFQHLLRVAYQDPSSGCTSKTLAVPPEASIATLNQLCATKFRVTQPNTFGLFLYKEQGYHRLPPGALAHRLPTTGYLVYRRAEWPETQGAVTEEEGSGQSEARSRGEEQGCQGDGDAGVKASPRDIREQSETTAEGGQGQAQEGPAQPGEPEAEGSRAAEE
